These are yes or no findings as the source states them, for the method shown. In cells and extracts the contact can be indirect. Some results given as binding are weak or reduced against the parent protein; the word gives no strength.

The chains behind the UniProt entries cited, without tags or fusion partners. Where a name states a change or a piece, a line headed by the entry shows the natural chain unless it says otherwise. Residues count along the entry.
UniProt P0DN87, residues 21-165: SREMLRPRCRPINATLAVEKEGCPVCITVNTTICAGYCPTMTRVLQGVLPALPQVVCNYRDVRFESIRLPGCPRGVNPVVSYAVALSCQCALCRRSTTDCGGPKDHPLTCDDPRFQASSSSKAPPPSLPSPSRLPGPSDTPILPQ
UniProt P01215, residues 25-116: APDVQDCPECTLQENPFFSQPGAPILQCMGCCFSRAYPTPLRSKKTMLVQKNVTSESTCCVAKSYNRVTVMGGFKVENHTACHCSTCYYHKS

For one substance, binding results are on record in publication PMC7501100.

Assay [1] concerns the target human chorionic gonadotropin beta subunit variant CGB7, His-tagged (human) (UniProt P0DN87). As to the kind of experiment: pull-down; Ni-NTA agarose capture of His-tagged CGB from the supernatant of HEK293 cells co-expressing untagged CGA; washes with PBS, 5 and 10 mM imidazole; elution with 250 mM imidazole in PBS; CGA seen by SDS-PAGE (Coomassie) and Western blot with anti-CGA.

The target in assay [2] is human chorionic gonadotropin beta subunit variant CGB3/5/8, His-tagged (human) (UniProt P0DN86). Described as above.

With “human chorionic gonadotropin alpha subunit (CGA) (from UniProt P01215 25-116)”, the binding result in assay [1] and in assay [2] was “binds” each time.
